Measurements reported in PubChem BioAssay AID1259289 (Sanger Institute, 2017)
The whole screen tested 794 reagents; below is an unselected part. 16 of all reagents (2%) were called active. 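Active marks cell loss from silencing alone; drug synergy shows only in the synergy scores, not the calls.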 Entries without a mark were called inactive. Further read-outs or replicates are left out here. Reagent sequences are not shown. Not given: the amount of reagent, the time to read-out.

Purpose: 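Kinases that bowel cancer cells need to survive, with or without BYL719, cetuximab, trametinib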 (primary screen)
Cell system: human LS513 colorectal cancer cells
Knock-down reagent: siRNA pool against human genes
Treatment: anchor drug BYL719 at 1 µM, cetuximab at 5 µg/ml or trametinib at 10 nM, or DMSO vehicle alone; exposure time not given
Detection: 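Cell survival as a fraction of the non-targeting pool, replicate means; robust z-score for silencing alone under DMSO; synergy score for each of BYL719, cetuximab and trametinib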
Scale: robust z-score, siRNA alone (DMSO): higher = more viable cells; strongly negative means essential
Active means: 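a gene counts as active if its DMSO-only robust z-score falls under -3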
Calls: active = essential (knock-down alone); inactive = not essential

ROS1 | robust z-score, siRNA alone (DMSO) = 0.561
NRK | robust z-score, siRNA alone (DMSO) = 0.561
ALK | robust z-score, siRNA alone (DMSO) = -1.4
MAP3K11 | robust z-score, siRNA alone (DMSO) = 0.468
PIK3C2G | robust z-score, siRNA alone (DMSO) = -2.3
GNE | robust z-score, siRNA alone (DMSO) = 0.561
PIK3R5 | robust z-score, siRNA alone (DMSO) = 0.489
ASPM | robust z-score, siRNA alone (DMSO) = 0.561
SPHK1 | robust z-score, siRNA alone (DMSO) = 0.291
STK32A | robust z-score, siRNA alone (DMSO) = 0.561
NME7 | robust z-score, siRNA alone (DMSO) = 0.561
TAB1 | robust z-score, siRNA alone (DMSO) = 0.561
RBM10 | robust z-score, siRNA alone (DMSO) = -1.27
PI4KA | robust z-score, siRNA alone (DMSO) = 0.561

Continued, starting with the last 3 of the part before.
TAB1 | robust z-score, siRNA alone (DMSO) = 0.561
RBM10 | robust z-score, siRNA alone (DMSO) = -1.27
PI4KA | robust z-score, siRNA alone (DMSO) = 0.561
TP53 | robust z-score, siRNA alone (DMSO) = 0.561
CDK8 | robust z-score, siRNA alone (DMSO) = 0.561
DCK | robust z-score, siRNA alone (DMSO) = -2.25
DUSP21 | robust z-score, siRNA alone (DMSO) = 0.561
PTPRU | robust z-score, siRNA alone (DMSO) = -0.563
PRKACA | robust z-score, siRNA alone (DMSO) = 0.561
SMAD2 | robust z-score, siRNA alone (DMSO) = 0.115
NIM1K | robust z-score, siRNA alone (DMSO) = 0.561
NME4 | robust z-score, siRNA alone (DMSO) = 0.561
PRKACG | robust z-score, siRNA alone (DMSO) = -0.774
TESK2 | robust z-score, siRNA alone (DMSO) = 0.561
PKDCC | robust z-score, siRNA alone (DMSO) = 0.561
CALM2 | robust z-score, siRNA alone (DMSO) = -0.912
RBKS | robust z-score, siRNA alone (DMSO) = 0.561
